{
  "source": "patent US12569506B2",
  "about": "“Methods of treating osteonecrosis with LLP2A-bisphosphonate compounds” (The Regents of the University of California, priority 2016, dated 2026)",
  "type_in_all_cases": "in vivo, BALB/c mice",
  "key": {"[1]": {"system": "dexamethasone-treated mice", "settings": "Dex alone vs Dex+LLP2A-Ale groups, day 90 (FIG. 7)", "procedure": "FIG. 7. Prevalence of osteonecrosis in dexamethasone-treated mice. Mice were treated for 90 days with dexamethasone (Dex), 4 mg/l in drinking water or placebo (PL) (fresh water). At day 30, the Dex-treated mice were re-randomized to Dex alone, Dex+250 μg/kg LLP2A-Ale, Dex+500 μg/kg LLP2A-Ale, and Dex+750 μg/kg LLP2A-Ale. The LLP2A-Ale treatments were given on days 30, 45, 60, and 75. All mice were euthanized at day 90. Right and left distal femurs were fixed in 10% neutral buffer formalin and decalcified. The specimens were dehydrated, embedded in paraffin, cut into 5 micron sections and H&E stained. The sections were evaluated for osteonecrosis by bright light microscopy using modified criteria reported by Yang et al., J. Orthop. […] Each GC-treated group and placebo group were assessed for all five osteonecrosis characteristics or the presence of at least three of the five osteonecrosis characteristics described above.\nThe efficacy of LLP2A-Ale was evaluated over a 90 day study using a mouse model of glucocorticoid-induced osteonecrosis. […]\nAll the mice were euthanized at day 90. The body weights of all the study animals were assessed each week. […]"}, "[2]": {"system": "dexamethasone-treated mice", "assay": "30 and 45 day prevention study: incidence of glucocorticoid-induced osteonecrosis", "settings": "30 or 45 days; Dex + LLP2A-Ale 250 or 500 μg/kg, or Dex + 40 μg/kg hPTH five times a week (FIG. 12)", "procedure": "FIG. 12. Reduction in incidence of glucocorticoid-induced osteonecrosis in mice treated with recombinant LLP2A-Ale. Mice were randomized into placebo (PL) (fresh water), dexamethasone (Dex) 4 mg/l in drinking water, Dex+250 μg/kg LLP2A-Ale, Dex+500 μg/kg LLP2A-Ale, or Dex+40 μg/kg hPTH (1-34) groups for a 30 day treatment period or a 45 day treatment period. The incidence of Dex-induced osteonecrosis was 57% on day 30 and 73% on day 45.\n(§1) The efficacy of LLP2A-Ale and hPTH (1-34) was evaluated over a 30 and 45 day study using a mouse model of glucocorticoid-induced osteonecrosis. Seven week-old male BALB/c mice were randomized into Placebo group (fresh water), glucocorticoid only (4 mg/L dexamethasone (Dex) in drinking water), Dex+250 μg/kg LLP2A-Ale, Dex+500 μg/kg LLP2A-Ale, or Dex+40 μg/kg hPTH (administered five times a week) for 30 or 45 days. At day 30 or 45, the mice were sacrificed. Study endpoints included histological evidence of osteonecrosis, bone mass, and prevalent blood vessels (CD31 and Endomucin expression) in the distal femur, and was performed as set forth in Example 2. Non-parametric Kruskal-Wallis tests were used to determine the differences between the groups."}, "[3]": {"system": "dexamethasone-treated mice", "assay": "30 and 45 day prevention study: trabecular bone histology of distal femur epiphyses", "settings": "day 30 and 45; Dex vs placebo, treated vs Dex (p<0.05)", "procedure": "as §1"}},
  "note": "“Also recorded” adds a separate entry of the source. For at least one compound, name, drawing or mass did not settle the structure.",
  "data": [
    {"smiles": "C[C@@H]1C[C@H]2[C@@H]3CCC4=CC(=O)C=C[C@]4(C)[C@@]3(F)[C@@H](O)C[C@]2(C)[C@@]1(O)C(=O)CO", "note": "[Dex, dexamethasone]", "values": [
      {"measurement": "Number of mice per group showing all five (or at least three) osteonecrosis characteristics", "setting": "[1]", "value": "significantly higher"},
      {"measurement": "Prevalence/incidence of glucocorticoid-induced osteonecrosis lesions (in words)", "setting": "[2]", "value": "significantly higher percentage of osteonecrosis prevalence; also recorded: induced trabecular bone loss and osteonecrosis lesions"},
      {"measurement": "Trabecular bone volume", "setting": "[3]", "value": "significantly reduced"}
    ]}
  ]
}
